Data: patent US20250092140A1
These are yes or no findings as the source states them, for the method shown. Some results given as binding are weak or reduced against the parent protein; the word gives no strength.

The chains behind the UniProt entries cited, without tags or fusion partners. Residues count along the entry.
UniProt O14931, residues 19-138: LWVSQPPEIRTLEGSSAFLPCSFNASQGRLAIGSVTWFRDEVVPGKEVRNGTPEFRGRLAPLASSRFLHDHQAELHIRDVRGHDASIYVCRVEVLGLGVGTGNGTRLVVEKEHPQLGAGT

Target: human-NKP30-His (human) (UniProt O14931)
Assay: ELISA, human-NKP30-His coated

binding: binds
B1: NKP30 monoclonal antibody (antibody, V domains shown)
VH: EVQLVESGGGLVQPGGSLRLSCAASGITFSRSVMGWFRQAPGKLRELVAGITSDDNTDYADSVKGRFTISRDNSKNTLYLQMNSLRAEDTAVYYCNILPDSRLGWGQGTLVTVSS
